Data published in publication PMC11807140.
Results are given in words; binding and its absence hold for the method and conditions named. In cells and extracts the contact can be indirect. Some binding calls cover weakened binding; strength is not graded here. For part of these data: Where a sequence is shown, tags or fusion partners need not be part of it.

Protein sequences, listed by entry. Tags and fused reporters are not part of them.
UniProt P49454: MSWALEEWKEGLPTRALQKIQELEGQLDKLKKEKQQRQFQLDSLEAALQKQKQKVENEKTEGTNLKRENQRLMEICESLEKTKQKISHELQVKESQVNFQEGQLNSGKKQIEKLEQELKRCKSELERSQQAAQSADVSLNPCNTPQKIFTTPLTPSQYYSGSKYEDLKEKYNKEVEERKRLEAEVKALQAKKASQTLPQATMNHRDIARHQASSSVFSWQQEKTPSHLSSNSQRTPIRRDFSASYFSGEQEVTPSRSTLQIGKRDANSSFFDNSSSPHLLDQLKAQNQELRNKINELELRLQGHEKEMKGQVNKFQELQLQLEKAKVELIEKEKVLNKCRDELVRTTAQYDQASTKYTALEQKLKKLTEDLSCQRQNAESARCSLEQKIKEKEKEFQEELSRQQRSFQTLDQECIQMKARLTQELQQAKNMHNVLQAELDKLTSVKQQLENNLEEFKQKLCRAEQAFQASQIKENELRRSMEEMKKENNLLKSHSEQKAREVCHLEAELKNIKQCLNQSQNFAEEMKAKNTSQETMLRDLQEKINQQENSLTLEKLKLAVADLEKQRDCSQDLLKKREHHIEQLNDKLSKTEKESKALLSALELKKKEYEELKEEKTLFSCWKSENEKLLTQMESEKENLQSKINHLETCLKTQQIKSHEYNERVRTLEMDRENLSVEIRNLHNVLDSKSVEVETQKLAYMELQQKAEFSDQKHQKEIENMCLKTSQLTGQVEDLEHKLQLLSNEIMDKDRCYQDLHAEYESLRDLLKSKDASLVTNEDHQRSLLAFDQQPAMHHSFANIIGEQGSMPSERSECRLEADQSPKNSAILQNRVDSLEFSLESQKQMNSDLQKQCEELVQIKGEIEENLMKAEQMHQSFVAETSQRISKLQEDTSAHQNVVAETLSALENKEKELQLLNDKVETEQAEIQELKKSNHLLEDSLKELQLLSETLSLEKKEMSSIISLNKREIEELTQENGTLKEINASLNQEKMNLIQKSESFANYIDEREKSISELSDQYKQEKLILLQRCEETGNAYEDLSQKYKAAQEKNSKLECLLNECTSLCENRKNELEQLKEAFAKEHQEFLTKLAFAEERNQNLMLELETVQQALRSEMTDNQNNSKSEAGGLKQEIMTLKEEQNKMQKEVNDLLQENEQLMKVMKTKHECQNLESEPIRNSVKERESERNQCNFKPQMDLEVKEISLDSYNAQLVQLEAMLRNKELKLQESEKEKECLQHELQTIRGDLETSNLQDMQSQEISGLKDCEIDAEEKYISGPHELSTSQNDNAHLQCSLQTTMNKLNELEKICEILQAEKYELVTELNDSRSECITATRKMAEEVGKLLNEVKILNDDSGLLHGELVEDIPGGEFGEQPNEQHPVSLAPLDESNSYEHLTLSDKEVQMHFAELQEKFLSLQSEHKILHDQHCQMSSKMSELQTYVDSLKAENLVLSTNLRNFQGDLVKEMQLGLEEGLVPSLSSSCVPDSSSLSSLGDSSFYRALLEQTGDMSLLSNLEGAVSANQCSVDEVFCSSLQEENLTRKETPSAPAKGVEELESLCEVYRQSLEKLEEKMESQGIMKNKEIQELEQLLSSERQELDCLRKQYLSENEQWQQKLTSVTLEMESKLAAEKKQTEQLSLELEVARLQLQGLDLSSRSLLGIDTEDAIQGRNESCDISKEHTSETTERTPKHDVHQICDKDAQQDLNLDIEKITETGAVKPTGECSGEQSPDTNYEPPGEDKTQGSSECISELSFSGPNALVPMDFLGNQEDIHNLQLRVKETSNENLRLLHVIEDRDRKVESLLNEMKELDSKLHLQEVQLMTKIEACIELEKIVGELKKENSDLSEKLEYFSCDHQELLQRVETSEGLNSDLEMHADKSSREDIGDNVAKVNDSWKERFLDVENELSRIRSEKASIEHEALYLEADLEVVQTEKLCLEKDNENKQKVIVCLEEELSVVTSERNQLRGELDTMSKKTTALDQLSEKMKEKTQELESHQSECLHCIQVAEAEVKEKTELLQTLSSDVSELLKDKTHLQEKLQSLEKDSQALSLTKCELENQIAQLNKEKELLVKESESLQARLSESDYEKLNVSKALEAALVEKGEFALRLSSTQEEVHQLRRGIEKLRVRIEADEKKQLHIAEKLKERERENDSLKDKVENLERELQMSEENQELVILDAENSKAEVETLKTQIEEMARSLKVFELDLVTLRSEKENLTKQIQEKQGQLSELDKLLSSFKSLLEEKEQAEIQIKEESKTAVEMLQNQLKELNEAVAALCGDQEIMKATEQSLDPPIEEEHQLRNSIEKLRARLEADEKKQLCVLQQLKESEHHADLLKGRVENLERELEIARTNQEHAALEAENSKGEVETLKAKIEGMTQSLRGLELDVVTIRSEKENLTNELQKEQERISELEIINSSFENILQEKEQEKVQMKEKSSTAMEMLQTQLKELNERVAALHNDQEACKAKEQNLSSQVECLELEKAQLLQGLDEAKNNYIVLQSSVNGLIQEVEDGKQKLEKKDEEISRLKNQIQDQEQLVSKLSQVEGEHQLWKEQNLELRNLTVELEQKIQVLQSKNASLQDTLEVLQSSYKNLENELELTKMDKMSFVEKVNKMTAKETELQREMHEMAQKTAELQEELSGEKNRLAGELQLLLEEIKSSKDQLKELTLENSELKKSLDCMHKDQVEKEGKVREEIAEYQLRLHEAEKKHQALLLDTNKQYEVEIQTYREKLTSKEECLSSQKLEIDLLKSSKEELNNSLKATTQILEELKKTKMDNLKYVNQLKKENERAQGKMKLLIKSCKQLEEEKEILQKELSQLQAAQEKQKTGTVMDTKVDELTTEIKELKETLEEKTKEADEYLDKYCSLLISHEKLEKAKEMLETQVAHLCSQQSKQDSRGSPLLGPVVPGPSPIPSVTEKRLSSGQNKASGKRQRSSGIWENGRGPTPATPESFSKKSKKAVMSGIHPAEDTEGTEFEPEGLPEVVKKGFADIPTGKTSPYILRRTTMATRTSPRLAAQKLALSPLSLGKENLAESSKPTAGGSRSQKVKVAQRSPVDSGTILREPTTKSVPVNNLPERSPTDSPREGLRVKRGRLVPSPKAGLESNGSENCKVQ

What was measured:
[1] = biological target: T1, USP4 (endogenous) (human (endogenous in HCT116)) (UniProt Q13107); test: co-IP; endogenous proteins in HCT116 cell lysate; IP with anti-USP4 or anti-CENPF antibody and protein A/G agarose at 4 °C overnight, immunoblot
T1 sequence: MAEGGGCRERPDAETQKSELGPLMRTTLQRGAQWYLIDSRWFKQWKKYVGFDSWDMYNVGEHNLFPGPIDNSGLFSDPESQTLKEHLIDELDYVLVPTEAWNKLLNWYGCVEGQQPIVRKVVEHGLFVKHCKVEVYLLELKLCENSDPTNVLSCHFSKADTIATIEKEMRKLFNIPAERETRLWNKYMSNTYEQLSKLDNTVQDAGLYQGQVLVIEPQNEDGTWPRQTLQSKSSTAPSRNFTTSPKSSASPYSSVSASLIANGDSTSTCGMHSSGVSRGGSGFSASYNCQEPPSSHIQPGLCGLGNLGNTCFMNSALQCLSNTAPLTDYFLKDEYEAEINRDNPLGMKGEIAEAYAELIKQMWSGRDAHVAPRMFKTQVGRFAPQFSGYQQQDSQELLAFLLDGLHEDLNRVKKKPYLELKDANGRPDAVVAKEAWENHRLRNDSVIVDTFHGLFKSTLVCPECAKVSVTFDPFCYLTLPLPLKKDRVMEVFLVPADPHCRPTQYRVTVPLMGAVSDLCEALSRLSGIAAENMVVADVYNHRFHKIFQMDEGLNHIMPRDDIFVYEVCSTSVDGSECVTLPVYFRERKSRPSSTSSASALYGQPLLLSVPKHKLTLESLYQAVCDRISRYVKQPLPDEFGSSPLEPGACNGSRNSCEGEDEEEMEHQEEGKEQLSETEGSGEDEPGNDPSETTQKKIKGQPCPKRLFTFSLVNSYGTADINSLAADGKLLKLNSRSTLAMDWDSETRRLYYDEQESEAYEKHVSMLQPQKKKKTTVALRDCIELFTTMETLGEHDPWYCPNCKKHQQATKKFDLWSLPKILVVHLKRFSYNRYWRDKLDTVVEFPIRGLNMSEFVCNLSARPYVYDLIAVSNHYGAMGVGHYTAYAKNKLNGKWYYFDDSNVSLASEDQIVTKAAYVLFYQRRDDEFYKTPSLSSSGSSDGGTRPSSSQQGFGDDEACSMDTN

USP4-Myc = biological target: T2, USP4-Myc (UniProt Q13107); test: co-IP; HCT116 cells co-transfected with CENPF-HA and USP4-Myc or its mutants, 20 µM MG132 for 6 h; IP with anti-Myc, immunoblot
T2 sequence: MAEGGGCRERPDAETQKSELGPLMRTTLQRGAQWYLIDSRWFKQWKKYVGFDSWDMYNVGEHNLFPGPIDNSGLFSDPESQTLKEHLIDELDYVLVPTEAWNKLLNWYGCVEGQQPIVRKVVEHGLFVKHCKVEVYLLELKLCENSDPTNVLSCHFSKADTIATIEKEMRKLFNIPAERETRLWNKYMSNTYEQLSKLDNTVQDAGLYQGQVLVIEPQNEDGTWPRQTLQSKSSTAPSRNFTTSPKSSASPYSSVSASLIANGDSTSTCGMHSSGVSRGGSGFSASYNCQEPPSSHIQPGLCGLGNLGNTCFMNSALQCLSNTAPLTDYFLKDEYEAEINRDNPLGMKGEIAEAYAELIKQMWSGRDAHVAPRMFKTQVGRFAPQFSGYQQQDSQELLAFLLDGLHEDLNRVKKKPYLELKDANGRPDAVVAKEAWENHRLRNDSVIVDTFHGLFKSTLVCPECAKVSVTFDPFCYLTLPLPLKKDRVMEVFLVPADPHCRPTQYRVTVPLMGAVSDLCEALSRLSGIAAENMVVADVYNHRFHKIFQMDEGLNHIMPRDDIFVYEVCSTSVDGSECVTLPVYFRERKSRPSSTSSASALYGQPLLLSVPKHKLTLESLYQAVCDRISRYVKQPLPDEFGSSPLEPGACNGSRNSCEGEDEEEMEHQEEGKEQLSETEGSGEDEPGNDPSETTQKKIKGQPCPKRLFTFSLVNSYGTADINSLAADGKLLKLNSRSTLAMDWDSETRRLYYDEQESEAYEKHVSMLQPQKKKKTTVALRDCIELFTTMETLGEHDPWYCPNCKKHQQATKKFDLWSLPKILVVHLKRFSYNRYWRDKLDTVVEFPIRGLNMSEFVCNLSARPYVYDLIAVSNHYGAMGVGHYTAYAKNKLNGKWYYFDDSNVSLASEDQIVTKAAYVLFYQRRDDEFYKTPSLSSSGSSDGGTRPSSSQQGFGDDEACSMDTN

[2] = biological target: CENPF (endogenous) (human (endogenous in HCT116)) (UniProt P49454); test: co-IP; endogenous proteins in HCT116 cell lysate; IP with anti-USP4 or anti-CENPF antibody and protein A/G agarose at 4 °C overnight, immunoblot

CENPF (endogenous) (from UniProt P49454 1-3114)
binding [1]: binds

CENPF-HA (HA-tagged centromere protein F) (from UniProt P49454 1-3114)
binding (USP4-Myc): binds

B1: USP4 (endogenous) (enzyme, UniProt Q13107 1-963)
chain: MAEGGGCRERPDAETQKSELGPLMRTTLQRGAQWYLIDSRWFKQWKKYVGFDSWDMYNVGEHNLFPGPIDNSGLFSDPESQTLKEHLIDELDYVLVPTEAWNKLLNWYGCVEGQQPIVRKVVEHGLFVKHCKVEVYLLELKLCENSDPTNVLSCHFSKADTIATIEKEMRKLFNIPAERETRLWNKYMSNTYEQLSKLDNTVQDAGLYQGQVLVIEPQNEDGTWPRQTLQSKSSTAPSRNFTTSPKSSASPYSSVSASLIANGDSTSTCGMHSSGVSRGGSGFSASYNCQEPPSSHIQPGLCGLGNLGNTCFMNSALQCLSNTAPLTDYFLKDEYEAEINRDNPLGMKGEIAEAYAELIKQMWSGRDAHVAPRMFKTQVGRFAPQFSGYQQQDSQELLAFLLDGLHEDLNRVKKKPYLELKDANGRPDAVVAKEAWENHRLRNDSVIVDTFHGLFKSTLVCPECAKVSVTFDPFCYLTLPLPLKKDRVMEVFLVPADPHCRPTQYRVTVPLMGAVSDLCEALSRLSGIAAENMVVADVYNHRFHKIFQMDEGLNHIMPRDDIFVYEVCSTSVDGSECVTLPVYFRERKSRPSSTSSASALYGQPLLLSVPKHKLTLESLYQAVCDRISRYVKQPLPDEFGSSPLEPGACNGSRNSCEGEDEEEMEHQEEGKEQLSETEGSGEDEPGNDPSETTQKKIKGQPCPKRLFTFSLVNSYGTADINSLAADGKLLKLNSRSTLAMDWDSETRRLYYDEQESEAYEKHVSMLQPQKKKKTTVALRDCIELFTTMETLGEHDPWYCPNCKKHQQATKKFDLWSLPKILVVHLKRFSYNRYWRDKLDTVVEFPIRGLNMSEFVCNLSARPYVYDLIAVSNHYGAMGVGHYTAYAKNKLNGKWYYFDDSNVSLASEDQIVTKAAYVLFYQRRDDEFYKTPSLSSSGSSDGGTRPSSSQQGFGDDEACSMDTN
binding [2]: binds
